The target of test [1] is CD30 D1L-mFc fusion protein (murine). Put plainly: ELISA on plate coated with 1 µg/mL CD30 D1L-mFc, anti-human IgG-HRP. For orientation: An ELISA detects its analyte on a solid surface through an enzyme-linked reagent.
For test [2], the target named is CD30 D1D2-mFc fusion protein (murine). The test is described as follows: ELISA on plate coated with 1 µg/mL CD30 D1D2-mFc, anti-human IgG-HRP.
For test [3], the target named is CD30 LD2-mFc fusion protein (murine). The test is described as follows: ELISA on plate coated with 1 µg/mL CD30 LD2-mFc, anti-human IgG-HRP.

These are yes or no findings as the source states them, for the method shown. Some entries that bind do so weakly or less than the wild type. Where a sequence is shown, tags or fusion partners need not be part of it.

B1: T1-23 anti-CD30 scFv-Fc (Fc fusion)
scFv: EVQLLESGGGLVQPGGSLRLSCAASGFTFSSYSMSWVRQAPGKGLEWVSGIGYPYYTYYADSVKGRFTISRDNSKNTLYLQMNSLRAEDTAVYYCARYYYDYGFDYWGQGTLVTVSSGGGGSGGGGSGGGGSQSVLTQPPSASGTPGQRVTISCSGSSSNIGSNYVYWYQQLPGTAPKLLIYRNNQRPSGVPDRFSGSKSGTSASLAISGLRSEDEADYYCAAYRSYDYVFGGGTKLTVLG
notes: scFv-Fc-conjugated form (Zb-Fc); also called Zb-Fc form; not shown: Fc of the scFv-Fc (Zb-Fc) form and its junction
As to B1, the binding result in test [1] and in test [2] was “binds” throughout.

B2: T1-8 anti-CD30 scFv-Fc (Fc fusion)
scFv: EVQLLESGGGLVQPGGSLRLSCAASGFTFSSYMSWVRQAPGKGLEWVSSIGSGYYSTYYADSVKGRFTISRDNSKNTLYLQMNSLRAEDTAVYYCARDYYGGFDYWGQGTLVTVSSGGGGSGGGGSGGGGSQSVLTQPPSASGTPGQRVTISCSGSSSNIGSNYVYWYQQLPGTAPKLLIYRNNQRPSGVPDRFSGSKSGTSASLAISGLRSEDEADYYCAAYDSYSYVFGGGTKLTVLG
notes: scFv-Fc-conjugated form (Zb-Fc); also called Zb-Fc form; not shown: Human Fc of the scFv-Fc (Zb-Fc) form and its junction to the scFv
Consider B2, for which the binding entry in test [1] is listed as “binds”.

B3: T1-36 anti-CD30 scFv-Fc (Fc fusion)
scFv: EVQLLESGGGLVQPGGSLRLSCAASGFTFSYYYMSWVRQAPGKGLEWVSYIGGGGSGTYYADSVKGRFTISRDNSKNTLYLQMNSLRAEDTAVYYCARGPYYGYFDYWGQGTLVTVSSGGGGSGGGGSGGGGSQSVLTQPPSASGTPGQRVTISCSGSSSNIGSNYVYWYQQLPGTAPKLLIYRNNQRPSGVPDRFSGSKSGTSASLAISGLRSEDEADYYCAAYPSYDSYVFGGGTKLTVLG
notes: as for B1
With B3, the binding result in test [3] is “binds”.

B4: T1-141 anti-CD30 scFv-Fc (Fc fusion)
scFv: EVQLLESGGGLVQPGGSLRLSCAASGFTFSYYDMSWVRQAPGKGLEWVSGIYGSGSTYYADSVKGRFTISRDNSKNTLYLQMNSLRAEDTAVYYCARYSYYDSYSDYFDYWGQGTLVTVSSGGGGSGGGGSGGGGSQSVLTQPPSASGTPGQRVTISCSGSSSNIGSNYVYWYQQLPGTAPKLLIYRNNQRPSGVPDRFSGSKSGTSASLAISGLRSEDEADYYCAAYSYGYYVFGGGTKLTVLG
notes: as for B1
Turning to B4, the binding result in test [1] and in test [2] was “binds” throughout.

B5: T1-159 anti-CD30 scFv-Fc (Fc fusion)
scFv: EVQLLESGGGLVQPGGSLRLSCAASGFTFSSYGMSWVRQAPGKGLEWVSSIYYYSGGTYYADSVKGRFTISRDNSKNTLYLQMNSLRAEDTAVYYCARNDYRNNSDFDYWGQGTLVTVSSGGGGSGGGGSGGGGSQSVLTQPPSASGTPGQRVTISCSGSSSNIGSNYVYWYQQLPGTAPKLLIYRNNQRPSGVPDRFSGSKSGTSASLAISGLRSEDEADYYCAAYYPYYYVFGGGTKLTVLG
notes: scFv-Fc-conjugated form (Zb-Fc); also called Zb-Fc form; not shown: Fc of the scFv-Fc (Zb-Fc) form and any junction to it
On to B5, for which the binding entry in test [1] is given as “binds”.
